We go through one substance from publication PMC11240372.

Amino acid sequences for entries named in this document (tags omitted). Residues count along the entry.
UniProt Q99MB1, residues 26-905: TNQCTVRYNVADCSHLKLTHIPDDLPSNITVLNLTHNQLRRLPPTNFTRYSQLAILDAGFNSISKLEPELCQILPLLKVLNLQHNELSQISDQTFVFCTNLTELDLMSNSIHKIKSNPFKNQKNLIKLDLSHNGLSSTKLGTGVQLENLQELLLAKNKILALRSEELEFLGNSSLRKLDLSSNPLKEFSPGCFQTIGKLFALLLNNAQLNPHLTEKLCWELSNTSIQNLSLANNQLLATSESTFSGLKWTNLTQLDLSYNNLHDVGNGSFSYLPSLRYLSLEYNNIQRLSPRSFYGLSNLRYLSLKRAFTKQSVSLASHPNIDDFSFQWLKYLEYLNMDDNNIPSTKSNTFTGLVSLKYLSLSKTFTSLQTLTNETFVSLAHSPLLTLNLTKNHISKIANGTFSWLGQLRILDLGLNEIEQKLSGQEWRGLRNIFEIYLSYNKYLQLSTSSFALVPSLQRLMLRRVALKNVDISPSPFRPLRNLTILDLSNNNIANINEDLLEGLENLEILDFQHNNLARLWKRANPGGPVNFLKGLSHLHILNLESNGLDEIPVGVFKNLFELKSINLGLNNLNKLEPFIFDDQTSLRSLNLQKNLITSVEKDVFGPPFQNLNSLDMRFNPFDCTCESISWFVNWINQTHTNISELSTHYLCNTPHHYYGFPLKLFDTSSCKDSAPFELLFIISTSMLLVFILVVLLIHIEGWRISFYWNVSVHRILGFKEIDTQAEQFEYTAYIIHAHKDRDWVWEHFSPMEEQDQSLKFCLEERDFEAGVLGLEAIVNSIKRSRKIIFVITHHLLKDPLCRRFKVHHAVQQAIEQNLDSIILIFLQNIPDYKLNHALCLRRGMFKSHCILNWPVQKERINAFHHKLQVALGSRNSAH

For this assay, the target named is T1, TLR7-HA (murine Tlr7 fused at the 3' end to the influenza hemagglutinin tag) (mouse) (UniProt P58681).
T1 sequence: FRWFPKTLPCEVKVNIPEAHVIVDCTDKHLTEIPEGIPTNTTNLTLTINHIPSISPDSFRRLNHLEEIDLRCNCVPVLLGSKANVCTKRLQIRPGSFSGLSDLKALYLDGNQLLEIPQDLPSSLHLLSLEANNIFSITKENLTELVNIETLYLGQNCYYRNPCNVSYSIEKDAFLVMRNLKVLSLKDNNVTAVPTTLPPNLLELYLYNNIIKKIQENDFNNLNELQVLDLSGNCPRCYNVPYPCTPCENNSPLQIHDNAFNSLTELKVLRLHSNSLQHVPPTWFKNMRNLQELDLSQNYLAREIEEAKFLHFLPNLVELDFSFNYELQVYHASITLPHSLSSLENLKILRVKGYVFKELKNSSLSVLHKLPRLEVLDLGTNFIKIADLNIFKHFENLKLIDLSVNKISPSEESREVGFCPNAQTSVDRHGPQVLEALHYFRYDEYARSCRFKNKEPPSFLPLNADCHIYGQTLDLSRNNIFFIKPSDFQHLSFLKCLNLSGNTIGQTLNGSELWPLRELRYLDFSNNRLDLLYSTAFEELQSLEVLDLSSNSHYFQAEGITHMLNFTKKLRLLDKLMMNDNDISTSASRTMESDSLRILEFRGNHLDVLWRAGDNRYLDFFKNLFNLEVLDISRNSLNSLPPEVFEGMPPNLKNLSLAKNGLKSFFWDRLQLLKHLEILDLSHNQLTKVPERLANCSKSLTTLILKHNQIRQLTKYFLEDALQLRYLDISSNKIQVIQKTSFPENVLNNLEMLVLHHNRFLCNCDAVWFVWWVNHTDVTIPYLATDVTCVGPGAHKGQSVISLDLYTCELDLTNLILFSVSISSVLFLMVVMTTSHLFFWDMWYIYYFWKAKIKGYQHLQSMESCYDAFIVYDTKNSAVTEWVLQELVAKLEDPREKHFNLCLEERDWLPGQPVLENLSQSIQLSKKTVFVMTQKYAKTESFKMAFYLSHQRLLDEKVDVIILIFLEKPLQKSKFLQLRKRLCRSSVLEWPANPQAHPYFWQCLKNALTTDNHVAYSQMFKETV
Briefly: co-IP.

No constants are given. Whether binding was seen depends on the method and setting. Binding seen in cells or lysates may run through a third protein. Some results given as binding are weak or reduced against the parent protein; the word gives no strength. Sequences can lack the tags named with a protein.

“TLR3-Myc (murine Tlr3 fused at the 3' end to the Myc tag) (from UniProt Q99MB1 26-905) (receptor)”: the binding result is listed as “binds”.
